Laboratory results published in publication doi:10.1101/2022.09.06.506874.
These are yes or no findings as the source states them, for the method shown. Binding seen in cells or lysates may run through a third protein. Some results given as binding are weak or reduced against the parent protein; the word gives no strength. Where a sequence is shown, tags or fusion partners need not be part of it.

Target: T1, GRAS-1::GFP (C. elegans) (UniProt Q93654)
T1 sequence: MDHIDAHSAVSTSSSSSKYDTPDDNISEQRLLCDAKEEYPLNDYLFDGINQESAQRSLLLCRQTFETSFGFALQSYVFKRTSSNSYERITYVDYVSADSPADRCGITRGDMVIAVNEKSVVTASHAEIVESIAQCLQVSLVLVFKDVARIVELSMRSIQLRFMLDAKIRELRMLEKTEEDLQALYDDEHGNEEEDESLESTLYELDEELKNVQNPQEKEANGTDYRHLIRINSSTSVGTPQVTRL
Test: co-IP

binding: binds
B1: SYP-3 (protein, UniProt O62238 1-224)
chain: MNFEKLVSQAVNGDRFKIFCGQLTEFTNSLAGEREAIEKGMRQIETQQLEAETSFTERIAEDRVKCAAQRESLERQLQDLTATDNKLSEQKRDWEERQEKAYDELMSYLENEDVDSAGTQFGDHFNSLIKSMNNLSHDSMNGQFNSLKNNLDELNIEKKQLEVAIADQSSTISEMIPSLRPTCGATYKERNTLRIIFHYQVAKLRSEYQKCRLQEEALKARLST
